Data from PubChem BioAssay AID2685 (National Center for Advancing Translational Sciences (NCATS), 2010).
About 2,100 (0.66%) of roughly 320,000 compounds were called active. Inconclusive means that the source gave no clear call. Such entries were picked first, then a sample of the others. Calls follow the shape of the dose curve; as a rule, active = well fitted inhibition curve with a large enough effect in the signal ratio, with a control signal flat (not every such curve was filed as active); inconclusive = small, poorly fitted or top-dose-only effect, or effect the other way, or a change in a side signal; inactive = flat fitted curve, though single readings scatter; the % refers to the signal ratio. Potencies beside an inconclusive call are fits to weak or partial responses and may not hold up.

Experiment: qHTS Assay for Lipid Storage Modulators in Drosophila S3 Cells
Settings: BODIPY lipid droplet fluorescence, 18-24 h, cells fed with added oleic acid; lipid storage change, negative = inhibition: at 46.1 µM (top of the series) unless noted
Method in brief: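 Drosophila S3 cells loaded with oleic acid (400 uM, as added) and compounds at several concentrations; lipid droplets imaged by 488-nm laser-scanning cytometry, 500–530 nm intensity and object ratio to cell channel. Percent activity normalized to 20 uM Triacsin C.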
% is scaled to controls: 0 for no effect and ±100 for the full control effect; potency is read from the fitted curve at half-maximal effect.

Row | Compound | lipid storage change, negative = inhibition | Potency
1 | COc1ccc2sc(NC(=O)CC(C)C)nc2c1 | inconclusive: 0.0979% | –
2 | O=[N+]([O-])c1ccc(N2CCCCC2)c(Cl)c1N1CCCCC1 | inconclusive: -17.8% | –
3 | CCCCSCCCNC(=O)c1cn(CC)c2ccc(S(=O)(=O)N3CCOCC3)cc2c1=O | – | inconclusive: 0.0517 µM [falling, full curve, poor fit]
4 | O=C(c1ccc(-c2ccccc2)cc1)N1CCC(C(=O)N2CCCC2)CC1 | – | inconclusive: 18.4 µM [falling, partial curve, poor fit]
5 | O=S(=O)(c1ccc(OCC(O)CN2CCN(c3ccccc3O)CC2)cc1)N1CCOCC1 (stereo not given) | – | inconclusive: 8.2 µM [activator, partial curve]
6 | COc1ccccc1NC(=S)NC(=O)CCc1ccccc1 | inconclusive: 0.0044% | –
7 | O=C(N/N=C/c1cccc([N+](=O)[O-])c1O)C(O)(c1ccccc1)c1ccccc1 | inconclusive: 39.8% | –
8 | Nc1ccc(S(=O)(=O)c2ccc(N)cc2)cc1 | inconclusive: -13.6% | –
9 | COCCNC(=O)CN1C(=O)NC(c2ccccc2)(c2ccccc2)C1=O | inconclusive: -191% | –
10 | COc1cccc(C(=O)Nc2ccc3c(c2)C(=O)NC3=O)c1 | – | inconclusive: 18.4 µM [activator, single point]
11 | COc1ccc2c(c1)c1c3n2CCN(C)C3=NCC1 | inconclusive: -131% | –
12 | COc1ccc(NC2C=CS(=O)(=O)C2)cc1 (stereo not given) | – | inconclusive: 4.11 µM [falling, partial curve]
13 | Cc1ccsc1C(=O)N/N=C/c1ccc2c(c1)OCO2 | inconclusive: 22.1% | –
14 | COc1ccc2nc(N/C(N)=N/C(=S)Nc3ccccc3)nc(C)c2c1 | inconclusive: -23.4% | –
15 | CCCCc1c(O)nc(N2CCN(Cc3ccccc3)CC2)[nH]c1=O | – | inconclusive: 8.2 µM [rising, partial curve]
16 | CCNS(=O)(=O)c1ccc(Br)c(OC)c1 | – | active: 25.9 µM
17 | O=C(CCN1C(=O)C2C3C=CC(C3)C2C1=O)N1CCCCC1 (stereo not given) | inconclusive: -11.5% | –
18 | NS(=O)(=O)c1cccc(NC(=O)CN2CCCc3ccccc32)c1 | – | inconclusive: 29.1 µM [activator, single point]
19 | CN1CCC(N(C)C(=O)Cc2ccccc2[N+](=O)[O-])CC1 | inconclusive: 10% | –
20 | OCCC1CN(Cc2ccc3nsnc3c2)CCN1CCc1ccccc1 (stereo not given) | inconclusive: 23.4% | –
21 | CCN(CC)C(=O)CSc1nnc(-c2cnccn2)n1-c1ccccc1 | inconclusive: -1.71% | –
22 | N#CCCc1cccc(CCC#N)c1 | – | inconclusive: 1.84 µM [activator, partial curve]
23 | COC(=O)C1=C(C)N(C)C(=S)NC1c1ccc(Cl)cc1 (stereo not given) | inconclusive: -10.2% | –
24 | Oc1cccc(Nc2nc(O)c(/C=C3\C=Nc4ccccc43)s2)c1 | – | inconclusive: 29.1 µM [falling, single point]
25 | Cn1nc(C(F)(F)F)c2cc(NC(=O)OCC(C)(C)C)sc21 | – | inconclusive: 0.731 µM [falling, single point]
26 | C[C@H](NC(=O)c1[nH]cnc1C(=O)Nc1ccon1)c1ccccc1 | inconclusive: 16% | –
27 | C=CCOc1c(Cl)cc(CNCCCN2CCOCC2)cc1OC | – | inconclusive: 10.3 µM [activator, partial curve]

Quoted from above, entries 20–22
Row | Compound | lipid storage change, negative = inhibition | Potency
20 | OCCC1CN(Cc2ccc3nsnc3c2)CCN1CCc1ccccc1 (stereo not given) | inconclusive: 23.4% | –
21 | CCN(CC)C(=O)CSc1nnc(-c2cnccn2)n1-c1ccccc1 | inconclusive: -1.71% | –
22 | N#CCCc1cccc(CCC#N)c1 | – | inconclusive: 1.84 µM [activator, partial curve]

Additional records follow:

Row | Compound | lipid storage change, negative = inhibition | Potency
28 | Cc1ccc(CCNC(=O)C2CCN(C(=O)c3sccc3-n3cccc3)CC2)cc1 | inconclusive: -2.52% | –
29 | O=C(Nc1ccccc1)NN(C(=O)CCl)c1ccccc1 | – | inconclusive: 7.31 µM [falling, partial curve]
30 | CCC(C)C(NC(=O)c1ccccc1NC(=O)c1ccccc1)C(=O)N1CCOCC1 (stereo not given) | inconclusive: 4.76% | –
31 | C=CCn1cc(C(=O)NCc2cccnc2)c(=O)c2cc(S(=O)(=O)N(CC)CC)ccc21 | – | inconclusive: 0.0046 µM [rising, full curve, poor fit]
32 | OCCN1CCN(CCCN2c3ccccc3Sc3ccc(Cl)cc32)CC1 | inconclusive: -0.671% | –
33 | CCOC(=O)/C=C/C(=O)Nc1nccs1 | inconclusive: -46.2% | –
34 | NS(=O)(=O)c1ccc(CCNC(=O)COC(=O)c2nc(Cl)ccc2Cl)cc1 | inconclusive: 135% | –
35 | CCCCC(=O)Nc1cccc(NC(=S)NC(=O)C(C)C)c1 | inconclusive: -28.1% | –
36 | CSCCC(NC(=O)c1ccccc1)C(=O)O (stereo not given) | inconclusive: -24.1% | –
37 | O=[N+]([O-])c1cccc(-c2c[n+]3c(n2-c2ccccc2)SCC3)c1 | inconclusive: -21.9% | –
38 | COC(=O)C1CCN(C(=O)COC(=O)C2CCN(S(=O)(=O)c3ccc(C)c(C)c3)CC2)CC1 | inconclusive | –
39 | OCC(CO)(CO)NC(=S)Nc1cc(Cl)cc(Cl)c1 | inconclusive: 47.8% | –
40 | COc1ccc(C(=O)NC2=NCCS2)cc1S(=O)(=O)N1CCCCC1C (stereo not given) | inconclusive: 68.7% | –
41 | Cc1ccc(C(=O)COC(=O)c2cccc([N+](=O)[O-])c2)s1 | inconclusive: 41.4% | –
42 | CCCn1c(=O)c(C(=O)N/N=C/c2ccccc2F)c(O)c2ccccc21 | inconclusive: -8.39% | –
43 | Cc1ccc(C2OC(=O)c3ccccc32)cc1 (stereo not given) | – | inconclusive: 16.4 µM [activator, single point]
44 | CN(C)c1ccc2c3c(cccc13)C(=O)N(c1ccccc1)C2=O | inconclusive: -22.7% | –
45 | O=C(CCCc1cccs1)Nc1nccs1 | inconclusive: 16.1% | –
46 | CC(C)(C)C(=O)Nc1scc(-c2ccc(-c3ccccc3)cc2)c1C(=O)O | inconclusive: -5.61% | –
47 | CC1(NC(=O)CCS(=O)(=O)c2ccc(Cl)cc2)CCS(=O)(=O)C1 (stereo not given) | inconclusive: -37.5% | –
48 | Cc1ccccc1C(=O)N1CCC(C(=O)NN2C(=O)NC3(CCCCC3)C2=O)CC1 | – | inconclusive: 0.231 µM [falling, full curve]
49 | CCc1ccc(NC(=O)c2cnccn2)cc1 | inconclusive: -5.26% | –
50 | CN(C)c1ccc(/C=C/C(=O)c2cccnc2)cc1 | inconclusive: -11.5% | –
51 | O=C1C2C3c4ccccc4C(c4ccccc43)C2C(=O)N1CN1CCOCC1 (stereo not given) | inconclusive: 1.11% | –
52 | Cc1onc(-c2ccccc2Cl)c1-c1nc(-c2ccccn2)no1 | inconclusive: -20.3% | –
53 | CCN(C(=O)COC(=O)c1ccc2c(c1)OCO2)c1c(N)n(Cc2ccccc2)c(=O)[nH]c1=O | inconclusive: -3.97% | –
54 | Cn1c(=O)[nH]c(=O)c2c1nc1n2CCCN1CCc1ccccc1 | – | inconclusive: 4.11 µM [activator, full curve, poor fit]

Row | Compound | lipid storage change, negative = inhibition | Potency
55 | CCN(c1ccccc1)S(=O)(=O)c1ccc(OC)c(NC(=O)CN2C(=O)NC(C)(C)C2=O)c1 | inactive: 9.62% | –
56 | CC1CCCN(S(=O)(=O)c2cccc([N+](=O)[O-])c2)C1 (stereo not given) | inconclusive: 11.4% | –
57 | CSc1ccccc1NC(=O)c1ccoc1C | inconclusive: 28.9% | –
58 | Cc1ccccc1C(=O)N1CCC(C(=O)Nc2cccc(F)c2)CC1 | inconclusive: 32.8% | –
59 | CC(=O)c1ccc(OCCCC(=O)NCc2nnc3ccccn23)cc1 | inconclusive: -38.6% | –
60 | O=C(CC1SC(=NCCc2ccccc2)N(/N=C/c2cccs2)C1=O)Nc1ccc(Cl)cc1 (stereo not given) | – | inconclusive: 29.1 µM [falling, single point]
61 | O=C(Oc1ccc(Br)cc1)c1cccc(S(=O)(=O)N2CCOCC2)c1 | – | inconclusive: 0.13 µM [falling, full curve, poor fit]
62 | O=C(O)CC(NS(=O)(=O)c1ccc(Br)cc1)c1ccco1 (stereo not given) | inconclusive: -8.94% | –
63 | O=C(O)c1c(Cl)c(Cl)c(Cl)c(Cl)c1C(=O)N1CCCCCC1 | inconclusive: -43.2% | –
64 | O=[N+]([O-])c1ccccc1N/N=C\c1ccccc1Cl | inconclusive: -18.8% | –
65 | COc1ccccc1N1CCN(S(=O)(=O)CCNC(=O)c2cc(=O)c3ccccc3o2)CC1 | inconclusive: -9.82% | –
66 | O=C(CSc1nnc(NC(=O)c2ccco2)s1)Nc1ccccc1F | inconclusive: -20.2% [at 9.22 µM] | –
67 | CC(C)(O)C#Cc1ccc(C(=O)NCCc2ccc(S(N)(=O)=O)cc2)cc1 | inconclusive: 12.7% | –
68 | CC(NC(=O)CCC(=O)NC(C)C1COc2ccccc2O1)C1COc2ccccc2O1 (stereo not given) | inactive: -3.23% | –
69 | CC(C(=O)NCC1CCCO1)n1cccc1C(=O)c1ccccc1 (stereo not given) | inconclusive: 21.9% | –
70 | C/C(=N\NS(=O)(=O)c1ccc(Br)cc1)c1ccc(-n2ccnc2)cc1 | – | inconclusive: 0.92 µM [falling, partial curve]
71 | COc1ccc(-c2nnc(SCC(=O)Nc3sc4c(c3C#N)CCCC4)n2-c2ccccc2)cc1 | inconclusive: 7.21% | –
72 | Cc1ccc2sc(N(CCCN(C)C)C(=O)CCS(=O)(=O)c3ccccc3)nc2c1C | – | inconclusive: 29.1 µM [falling, single point]
73 | COc1ccccc1N1CCN(C(=O)CSc2nc(C)c(Cc3ccccc3)c(=O)[nH]2)CC1 | inconclusive: 113% | –
74 | Cc1ccc(/C=N\NC(=O)c2cc([N+](=O)[O-])cc([N+](=O)[O-])c2)o1 | inconclusive: -5.86% | –
75 | O=C(NCc1ccco1)c1nc2c(nnn2Cc2cccc(Cl)c2)c(=O)[nH]1 | inconclusive: 18.1% | –
76 | COc1ccc(NC(=S)NC(C)Cc2cccs2)cc1 (stereo not given) | inconclusive: -20.9% | –
77 | Cc1ccccc1NC(=S)N(C)Cc1cn(C)c2ccccc12 | inconclusive: 20.4% | –
78 | CCc1ccc(Nc2n[n+](-c3ccccc3)c(-c3cccc(C)c3)s2)cc1 | inconclusive: -100% | –
79 | CN1CCN(CCCNC(=O)c2ccc3c(Cl)c4c(nc3c2)CCCC4)CC1 | inconclusive: -20.1% | –
80 | Cc1ccc(C)c(N2CCN(S(=O)(=O)c3ccc4c(c3)CC(C)N4C(=O)C3CC3)CC2)c1 (stereo not given) | inconclusive: 12.2% | –
